This is one part of the list. The main result of the screen is listed elsewhere. These columns were measured beside it and carry no call. Compounds called inactive in the main read-out are mostly missing here. Potencies come from curve fits of mixed quality, noted in brackets.
assay: IkB Signaling; details: ABC-DLBCL IkBa-CBG/CBR dual luciferase ratio (green luciferase fused to IkBa over red control in OCI-Ly3 lymphoma cells), 4 h; measured here: control luc red channel unless noted
Procedure, shortened: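 In this assay, an IκBα–CBG68 fusion accumulates when IKK-driven degradation is blocked; native CBR normalizes for cell number. OCI-Ly3 cells were treated 4 h with compound and doxycycline, then green and red light read after Chroma-Glo addition.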

SMILES	AC50
Cc1ccc(-c2nnn(CC(=O)Nc3cccc4cccnc34)n2)o1	25.1 µM [falling, partial curve]
COc1ccc(Nc2ncc3c(n2)CCN(Cc2cccc(F)c2F)C3)c(OC)c1	25.1 µM [falling, partial curve, poor fit]
CCOC(=O)c1c(-c2ccc(C)o2)csc1NC(=O)CSc1nnnn1-c1ccccc1	20 µM [rising, partial curve] [measured here: IkB-luc green channel]
Cc1ccc(C)c(NC(=O)c2cc(S(=O)(=O)N3CCN(c4cccc(Cl)c4)CC3)ccc2F)c1	3.16 µM [falling, full curve, poor fit]
Cc1c(C(=O)N2CCc3ccccc3C2)sc2nc(-c3ccccc3)cn12	15.8 µM [falling, partial curve]
Oc1c(C(c2ccccc2Cl)N2CCC(O)CC2)sc2nc(-c3ccco3)nn12 (stereo unspecified)	5.01 µM [rising, single point]
C#CCNc1c(C)c(C)nc2ncnn12	200 nM [rising, full curve, poor fit] [measured here: IkB-luc green channel]
O=C(Oc1ccccc1F)c1nc(SCc2ccccc2F)ncc1Cl	6.31 µM [rising, single point]
COc1ccccc1NC(=O)Cn1nc2c3cc(F)ccc3n(Cc3cccc(C)c3)cc-2c1=O	7.94 µM [falling, partial curve]
O=C(/C=C/c1ccccc1)Nc1nc2n(n1)C(c1ccc(Cl)cc1)C=C(c1ccccc1)N2 (stereo unspecified)	25.1 µM [falling, single point]
O=C(CN1C(=O)C2(SCC(=O)N2c2cccc(F)c2)c2ccccc21)NCc1ccccc1Cl (stereo unspecified)	15.8 µM [falling, partial curve]
CCc1nc2ccccc2n1CCCCOc1cccc(C)c1	15.8 µM [falling, partial curve]
CCCOc1ccc(NC(=O)CC2C(=O)N(c3ccc(OC)cc3)C(=O)N2CCc2ccncc2)cc1 (stereo unspecified)	20 µM [falling, partial curve]
CCOC(=O)c1cc(-c2ccccc2)n(CCCC(=O)Nc2cccc(C)c2)c1C	39.8 µM [falling, single point]
CC(C)(C)c1ccc(S(=O)(=O)c2cnc(SCC(=O)Nc3ccc4c(c3)OCCO4)[nH]c2=O)cc1	12.6 µM [falling, partial curve]
CCn1ccc2cc(S(=O)(=O)N3CCC(C(=O)NCC(C)c4ccccc4)CC3)ccc21 (stereo unspecified)	2 µM [falling, full curve, poor fit]
COc1ccc(S(=O)(=O)Nc2cc(-c3cn4ccc(C)cc4n3)ccc2C)cc1OC	20 µM [falling, single point]
Cc1nnc2c3ccccc3nc(Nc3ccccc3C(=O)O)n12	39.8 µM [falling, single point]
O=C(CSc1nnc(Nc2ccccc2F)s1)NCc1ccco1	31.6 µM [falling, single point]
O=C(COc1ccc(Cl)cc1)Nc1ccc2nc(SCC(=O)N3CCOCC3)sc2c1	12.6 µM [falling, partial curve]
Cc1ccc(-n2ncc(C(=O)NCc3ccccn3)c2C2CCN(C(=O)OC(C)(C)C)CC2)cc1C	25.1 µM [falling, partial curve, poor fit]

3 of these compounds, set out differently.
SMILES,AC50
CCc1nc2ccccc2n1CCCCOc1cccc(C)c1,"15.8 µM [falling, partial curve]"
COc1ccc(S(=O)(=O)Nc2cc(-c3cn4ccc(C)cc4n3)ccc2C)cc1OC,"20 µM [falling, single point]"
O=C(COc1ccc(Cl)cc1)Nc1ccc2nc(SCC(=O)N3CCOCC3)sc2c1,"12.6 µM [falling, partial curve]"

Additional results:

SMILES	AC50
O=C(Nc1ccc(C(F)(F)F)cc1)c1cc(S(=O)(=O)N2CCCc3ccccc32)ccc1F	3.98 µM [falling, full curve]
COc1cc(Cl)c(C)cc1NC(=O)c1cc2c(=O)oc3ccccc3c2s1	3.16 µM [falling, full curve]
CCn1cc(C(=O)N2CCN(c3cc(Cl)ccc3C)CC2)c(=O)c2cc(S(=O)(=O)N3CCCC3)ccc21	15.8 µM [falling, partial curve]
Cc1nc2ccc(NC(=O)Nc3ccnc4cccnc34)cc2o1	3.98 µM [falling, partial curve]
Cc1cc(C(=O)N2CCN(c3cccc(Cl)c3)CC2)c2c(C)nn(-c3ccccc3Cl)c2n1	15.8 µM [falling, partial curve]
CCCSc1ncc(Cl)c(C(=O)N(Cc2ccccc2)c2ccc(OC)cc2)n1	25.1 µM [falling, single point]
Cn1ccc2c(OCC(=O)Nc3ccc(OC(F)(F)F)cc3)cccc2c1=O	3.16 µM [falling, single point]
CC(=O)c1ccc(NS(=O)(=O)c2ccc(Br)s2)cc1	7.94 µM [falling, partial curve]
Cc1cc(C)cc(C(=O)NCCc2csc(-c3ccc(C(F)(F)F)cc3)n2)c1	31.6 µM [falling, partial curve, poor fit]
CCC(Sc1nnc2c(n1)[nH]c1ccccc12)C(=O)Nc1ccccc1OC (stereo unspecified)	15.8 µM [falling, partial curve]
CCc1ccccc1S(=O)(=O)Cc1ccc(C(=O)NCCc2ccc(C)cc2)o1	20 µM [falling, partial curve]
COc1ccc(NC(=O)c2ncn(-c3ccccc3)n2)cc1Cl	20 µM [falling, partial curve]
CCOC(=O)c1c(-c2ccccc2)oc2ccc(O)c(CN3CCOCC3)c12	15.8 µM [falling, partial curve]
Cc1cccc2sc(NC(=O)CCNS(=O)(=O)c3cccs3)nc12	10 µM [falling, partial curve]
CN(C)c1ccc(C(CNC(=O)c2ccccc2Cl)N2CCCC2)cc1 (stereo unspecified)	3.16 µM [falling, partial curve]
Cc1cccc(-c2nc(CSCC(=O)N3CCN(c4ccccn4)CC3)c(C)o2)c1	5.01 µM [falling, full curve, poor fit]
COc1ccc(N2CCN(CCCNC(=O)c3cnn(-c4ccc(C)cc4)c3-n3cccc3)CC2)cc1	6.31 µM [falling, partial curve]
Cc1ccc2nc(NC(=O)C3CCCN(S(=O)(=O)c4cnc[nH]4)C3)sc2c1 (stereo unspecified)	6.31 µM [falling, partial curve]
COc1cccc(OCC(=O)NC2CC(=O)N(c3cccc(OC)c3)C2)c1 (stereo unspecified)	6.31 µM [rising, single point]
Cc1ccccc1CSc1nc2c(sc3ccccc32)c(=O)n1CCCC(=O)NCCCOC(C)C	5.01 µM [falling, partial curve]
CS(=O)(=O)CC[C@@H](C(=O)NCCc1ccccc1)N1Cc2ccccc2C1=O	0.1 µM [rising, full curve, poor fit]

SMILES	AC50
Cc1cccc(OCC(=O)N2CCC(c3nc4ccccc4o3)CC2)c1C	31.6 µM [falling, single point]
COCc1cc(C)nc2c1C(=O)NC(c1ccc(NC(C)=O)cc1)N2Cc1ccccc1 (stereo unspecified)	39.8 µM [falling, single point]
COc1ccc(/C=C/c2nc(C#N)c(NCc3ccc(C)cc3)o2)cc1OC	39.8 µM [falling, single point]
Cc1ccc(NC(=O)N2CCC3(CC2)Oc2ccccc2C(=O)N3Cc2ccc(F)cc2)cc1	31.6 µM [falling, single point]
CCNC(=O)c1ccc2c(c1)sc1nc(-c3cccc(OC)c3)cn12	31.6 µM [falling, single point]
O=C1Nc2ccc(S(=O)(=O)NCc3ccco3)c3cccc1c23	20 µM [rising, partial curve] [measured here: IkB-luc green channel]
O=C(Cn1cc(SCc2cccc(Cl)c2)c2ccccc21)N1CCCCC1	15.8 µM [falling, partial curve]
CCOc1ccc(NC(=O)CC2C(=O)N(c3ccccc3)C(=O)N2CCc2sccc2C)cc1 (stereo unspecified)	39.8 µM [falling, single point]
COc1ccc(S(=O)(=O)c2c(C(=O)c3ccc(C)c(C)c3)cnc3ccc(C)cc23)cc1	6.31 µM [falling, partial curve]
Fc1ccc(-c2cc(-c3nc(-c4ccc(Cl)cc4)no3)[nH]n2)cc1	3.16 µM [rising, full curve]
COc1cccc(/C=C/c2nc(C#N)c(NC3CCCCC3)o2)c1	39.8 µM [falling, partial curve]
CSc1ccc(CCNC(=O)Cn2c(C)c3cnn(-c4ccccc4)c(=O)c3c2C)cc1	2.51 µM [falling, partial curve]
COc1cccc(-n2c(=O)c3sc4ccccc4c3n(Cc3c(F)cccc3Cl)c2=O)c1	0.1 µM [rising, full curve]
Cc1ccc(-n2nc(CO)c(C(=O)NCCC(C)C)n2)cc1C	15.8 µM [falling, single point]
O=C(NCc1ccco1)c1cc2sccc2n1Cc1ccccc1	20 µM [falling, partial curve]
Cc1ccc(CNC(=O)c2ccc(Cn3c(SCc4ccc(F)cc4)nc4cccnc43)cc2)o1	3.16 µM [falling, full curve]
CCCN(C(=O)CCc1nc(-c2ccc(C)cc2)no1)c1ccc(OCC)cc1	20 µM [falling, partial curve]
Cc1ccc(N2C(=O)C(CC(=O)Nc3cccc(F)c3)N(CCc3ccccc3F)C2=O)cc1 (stereo unspecified)	3.16 µM [rising, partial curve]
c1ccc2c(Nc3ccncc3)nc(-c3ccc4c(c3)OCO4)nc2c1	3.16 µM [falling, single point] [measured here: IkB-luc green channel]

— PubChem BioAssay AID445 (National Center for Advancing Translational Sciences (NCATS), 2006)
